For one molecule, binding results are on record in paper PMC8303269, “ERα36–GPER1 Collaboration Inhibits TLR4/NFκB-Induced Pro-Inflammatory Activity in Breast Cancer Cells” (International Journal of Molecular Sciences, 2021).

Sequences of proteins named here, by UniProt entry; tags and fusion partners are left off.
UniProt Q99527: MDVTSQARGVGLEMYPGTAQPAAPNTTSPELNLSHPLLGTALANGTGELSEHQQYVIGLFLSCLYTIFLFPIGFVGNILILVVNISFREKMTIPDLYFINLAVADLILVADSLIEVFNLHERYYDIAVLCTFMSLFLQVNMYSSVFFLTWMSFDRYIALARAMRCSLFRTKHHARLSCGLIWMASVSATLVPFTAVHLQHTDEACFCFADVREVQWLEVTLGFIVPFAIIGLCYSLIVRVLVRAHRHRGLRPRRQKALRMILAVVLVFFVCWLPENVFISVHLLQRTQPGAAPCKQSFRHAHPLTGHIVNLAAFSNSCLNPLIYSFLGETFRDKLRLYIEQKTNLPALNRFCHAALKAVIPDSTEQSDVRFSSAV

No constants are given. Whether binding was seen depends on the method and setting. Binding seen in cells or lysates may run through a third protein. Some binding calls cover weakened binding; strength is not graded here.

Experiment [1] deals with G-protein Estrogen Receptor 1 (GPER1) (human (endogenous in SKBR3)) (UniProt Q99527). Nature of the experiment: proximity ligation; Duolink In Situ, bright field; fixed SKBR3 cells, endogenous proteins; rabbit polyclonal anti-ERα36 and mouse monoclonal anti-GPER1; cells treated with E2 (10^-7 M) and/or LPS.
The target is the same in experiment [2]. Nature of the experiment: co-IP; SKBR3 whole-cell extract (hypotonic gentle lysis buffer, NaCl brought to 150 mM); precipitated with mouse monoclonal anti-GPER1 (clone 2F2) on protein G-sepharose, 4 °C; blot for ERα36; cells treated with E2 (10^-7 M) or LPS 100 μg/mL for 3-4 h.
Experiment [3] has the same target. Nature of the experiment: proximity ligation; Duolink In Situ, bright field; fixed SKBR3 cells, endogenous proteins; rabbit polyclonal anti-ERα36 and mouse monoclonal anti-GPER1; untreated cells (baseline, no E2, no LPS).

B1: estrogen receptor alpha 36 (ERα36) (receptor, human (endogenous in SKBR3), UniProt P03372-4 1-310, looked up)
chain: MAMESAKETRYCAVCNDYASGYHYGVWSCEGCKAFFKRSIQGHNDYMCPATNQCTIDKNRRKSCQACRLRKCYEVGMMKGGIRKDRRGGRMLKHKRQRDDGEGRGEVGSAGDMRAANLWPSPLMIKRSKKNSLALSLTADQMVSALLDAEPPILYSEYDPTRPFSEASMMGLLTNLADRELVHMINWAKRVPGFVDLTLHDQVHLLECAWLEILMIGLVWRSMEHPGKLLFAPNLLLDRNQGKCVEGMVEIFDMLLATSSRFRMMNLQGEEFVCLKSIILLNSGISHVEAKKRILNLHPKIFGNKWFPRV
notes: called estrogen receptor isoform 4 in the NCBI database; Endogenous protein detected with a rabbit polyclonal anti-ERα36 antibody; also called ERa36; estrogen receptor isoform 4; source: endogenous, SKBR3 cells (fixed cells; whole-cell extract)
B1: the binding entry was “binds” in experiment [1]; “binds” in experiment [2]; “no binding (condition: untreated cells (no E2, no LPS))” in experiment [3].
